Measurements reported in PubChem BioAssay AID540256 (National Center for Advancing Translational Sciences (NCATS), 2011).
Among all 300,000 compounds or so, about 3,700 (1.2%) were called active. Inconclusive results, whose numbers are uncertain, are shown with a selection of clear calls. Calls come from the whole dose curve; tested in HEK293 cells. A potency beside an inconclusive call is a rough fit, not a confirmed value.

Assay: qHTS for Inhibitors of binding or entry into cells for Lassa Virus; note: nearly all actives have a fitted effect of over 50% in size
Settings: Lassa virus pseudotype entry inhibition, cell reporter; series mostly up to 37.9 µM
Potency is the fitted concentration of half-maximal effect.

| SMILES | Potency |
| --- | --- |
| O=C(N/N=C/c1cc(Br)ccc1O)c1cccc(N2CCCC2=O)c1 | inconclusive: 11.2 µM [inhibitor, partial curve] |
| O=C(Nc1cccc(F)c1)NC1(C(=O)N2CCC(O)CC2)CCCCC1 | inconclusive: 0.112 µM [inhibitor, full curve, poor fit] |
| CCCCOC(=O)c1ccc(NC(=O)CSc2nc3c(c(=O)[nH]2)CCC3)cc1 | inactive |
| CCc1ccc(-c2ccc(C(=O)O)c(C)n2)cc1 | inconclusive: 15.8 µM [activator, single point] |
| COc1cc(-c2nc3cccc(C)n3c2Nc2ccc3c(c2)OCCO3)ccc1O | inactive |
| COc1cc(S(=O)(=O)NCc2ccncc2)ccc1Br | inconclusive: 1.26 µM [inhibitor, full curve] |
| Cc1cc(C)cc(NC(=O)CN(C)S(=O)(=O)c2cccc3nsnc23)c1 | inconclusive: 4.61 µM [inhibitor, single point] |
| COc1ccc(CCNC(=O)c2n[nH]c(=O)c3ccccc23)cc1 | inactive |
| C/C(=N\N1C(=O)c2ccccc2NC1c1ccco1)c1ccccc1O (configuration not stated) | inconclusive: 29.1 µM [inhibitor, single point] |
| COc1cc(CNC(=O)c2cc3ccccc3oc2=O)cc(OC)c1OC | inactive |
| COc1ccc(C2(O)C(=O)Nc3ccc(C)cc32)cc1OC (configuration not stated) | inactive |
| COc1ccc(S(=O)(=O)NCCS(=O)(=O)N2CCN(c3ccccc3F)CC2)cc1 | inconclusive: 35.5 µM [inhibitor, single point] |
| Cc1cccc(Nc2nc(N)nc(CCl)n2)c1 | inconclusive: 22.4 µM [inhibitor, partial curve, poor fit] |
| COc1cc2c(cc1OC)C(C(=O)Nc1cccc(C)n1)C(c1cccnc1)N(C)C2=O (configuration not stated) | inactive |
| O=C(NCc1cccnc1)C1CCCN(S(=O)(=O)c2ccc(Cl)cc2)C1 (configuration not stated) | inactive |
| Cc1ccc(OCC(=O)NCC(=O)n2nc(C)cc2C)cc1 | inconclusive: 14.1 µM [activator, single point] |
| Cc1ccc(NC(=O)Cn2c(C)cc(C)c(C#N)c2=O)cc1 | inactive |
| COc1cc2c(C#N)c(N3CCN(c4ccccc4OC)CC3)nc(N)c2c(N)n1 | active: 11.2 µM |
| CCN(C(=O)COC(=O)c1c(C)nn(-c2ccccc2)c1C)C1CCS(=O)(=O)C1 (configuration not stated) | inactive |
| N#CCCn1nc(-c2ccccc2)cc1-n1c(C(F)(F)F)nc2ccccc21 | inconclusive: 29.1 µM [inhibitor, single point] |
| Cc1ccc(C)c(N2CCN(C(=O)Cc3ccc(-n4c(=O)[nH]c5ccsc5c4=O)cc3)CC2)c1 | inconclusive: 7.94 µM [inhibitor, partial curve, poor fit] |
| O=C(CSc1n[nH]c(-c2ccc(Br)cc2)n1)N1CCOCC1 | inconclusive: 12.6 µM [inhibitor, partial curve, poor fit] |
| Cc1ccc(C(c2sc3nc(-c4ccco4)nn3c2O)N2CCOCC2)cc1 (configuration not stated) | inactive |
| CSc1cccc(NC(=O)c2c(Cl)cnn2C)c1 | inconclusive: 2.06 µM [activator, full curve, poor fit] |

| SMILES | Potency |
| --- | --- |
| Cc1cc(C)n(C(=O)/C(C#N)=N\Nc2ccccc2[N+](=O)[O-])n1 | inactive |
| O=C(O/N=C1/CCCc2occc21)c1ccc(Cl)cc1Cl | inactive |
| Cc1ccc(Sc2c(C)nn(C(=O)COc3ccccc3)c2C)cc1 | inactive |
| CC1=C(c2ccc(F)cc2)S(=O)(=O)N=C1N1CCC(C(=O)NCCc2ccco2)CC1 | inactive |
| CC(C)(C)C(=O)O/N=C(\N)COc1cccc(Cl)c1 | inactive |
| CCOc1ccc(C(C)=O)cc1COc1cccnc1[N+](=O)[O-] | inconclusive: 14.1 µM [inhibitor, partial curve, poor fit] |
| CC1CN=C(N(C(=S)Nc2ccccc2)c2cccc(C(F)(F)F)c2)S1 (configuration not stated) | inactive |
| CCn1c(=O)n(CC)c2cc(N3CCCC3)c(NC(=O)c3cccc(C)c3)cc21 | inconclusive: 2.82 µM [inhibitor, partial curve, poor fit] |
| COc1ccc(S(=O)(=O)NCCc2csc3nc(-c4ccc(Cl)cc4)nn23)cc1C | inactive |
| COc1ccc2[nH]c(=O)c(CN(C(=O)c3cccc(Cl)c3)c3ccccc3OC)cc2c1 | inactive |
| O=C1NC(=O)C2(Br)Nc3ccc(Br)cc3C(=O)C2N1 (configuration not stated) | inactive |
| Cc1cccc(Cn2c(C)c(C)c3cc(C(=O)NCc4ccco4)ccc32)c1 | inconclusive: 6.31 µM [inhibitor, partial curve, poor fit] |
| COc1ccc(Nc2nc(-c3cccc([N+](=O)[O-])c3)nc3ccccc23)c(OC)c1 | inactive |
| Cc1noc(C)c1CSc1ccccc1C(=O)N(C)CC(=O)Nc1cccc(F)c1 | inconclusive: 17.8 µM [inhibitor, partial curve, poor fit] |
| COc1ccc(OC)c(NC(=S)N2CCN(c3ccccn3)CC2)c1 | inconclusive: 18.3 µM [activator, single point] |
| COc1cc(/C=C/C(=O)Nc2ccc(C)cc2)cc(OC)c1OC | inconclusive: 0.0058 µM [inhibitor, full curve, poor fit] |
| CCOc1cc(CN2CCCC(C(=O)c3cccc(C(F)(F)F)c3)C2)ccc1O (configuration not stated) | inconclusive: 20 µM [inhibitor, partial curve, poor fit] |
| COc1ccc(Nc2oc(-c3ccc(OC)cc3)nc2C#N)cc1 | inactive |
| COc1ccc(CN2CCNC(=O)C2CC(=O)NCCCC2CCCC2)c(C)c1C (configuration not stated) | inactive |
| S=C(NCc1ccc2[nH]c3c(c2c1)CCCC3)Nc1ccccc1Cl | inconclusive: 18.4 µM [inhibitor, partial curve, poor fit] |
| CCN(CC)Cc1c(C(=O)N/N=C/c2cccc3ccccc23)nnn1-c1nonc1N | inconclusive: 22.4 µM [inhibitor, partial curve, poor fit] |
| Cc1ccc(-c2cc(C(=O)N/N=C/C=C/c3ccccc3)n[nH]2)s1 | inconclusive: 16.4 µM [inhibitor, partial curve, poor fit] |
| O=C(N/N=C/C(Cl)=C/c1ccccc1)c1ccccn1 | inconclusive: 35.5 µM [inhibitor, single point] |
